This is one part of the list.
What was measured:
Assay in all cases: log2 fold change, soluble protein after heating vs DMSO (PISA); higher = thermal stabilisation; K562 lysate, 10 uM; active = over 0.2 and 3.5 SD of the protein, either way, in both replicates (recomputed)
erlotinib = compound: C#Cc1cccc(Nc2ncnc3cc(OCCOC)c(OCCOC)cc23)c1 [erlotinib]
Outline: (§1)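 A 30 min treatment with 10 μM compound was applied to crude K562 extract at 1 mg/mL protein in PBS pH 7.4 with 1 mM MgCl2. Heating for 3 min spanned 48°C-58°C, after which aliquots were pooled, adjusted to 0.5% NP-40 at 4°C and spun at 21,000xg for 90 min. TMTpro 16plex LC-MS/MS of the supernatant, with channel sums equalised, gave values recorded as log-two fold change in thermal stability against solvent controls, from duplicates.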

By UniProt entry, the sequences of proteins in these tests, tags left out. Where a name states a change or a piece, a line headed by the entry shows the natural chain unless it says otherwise.
UniProt P35221: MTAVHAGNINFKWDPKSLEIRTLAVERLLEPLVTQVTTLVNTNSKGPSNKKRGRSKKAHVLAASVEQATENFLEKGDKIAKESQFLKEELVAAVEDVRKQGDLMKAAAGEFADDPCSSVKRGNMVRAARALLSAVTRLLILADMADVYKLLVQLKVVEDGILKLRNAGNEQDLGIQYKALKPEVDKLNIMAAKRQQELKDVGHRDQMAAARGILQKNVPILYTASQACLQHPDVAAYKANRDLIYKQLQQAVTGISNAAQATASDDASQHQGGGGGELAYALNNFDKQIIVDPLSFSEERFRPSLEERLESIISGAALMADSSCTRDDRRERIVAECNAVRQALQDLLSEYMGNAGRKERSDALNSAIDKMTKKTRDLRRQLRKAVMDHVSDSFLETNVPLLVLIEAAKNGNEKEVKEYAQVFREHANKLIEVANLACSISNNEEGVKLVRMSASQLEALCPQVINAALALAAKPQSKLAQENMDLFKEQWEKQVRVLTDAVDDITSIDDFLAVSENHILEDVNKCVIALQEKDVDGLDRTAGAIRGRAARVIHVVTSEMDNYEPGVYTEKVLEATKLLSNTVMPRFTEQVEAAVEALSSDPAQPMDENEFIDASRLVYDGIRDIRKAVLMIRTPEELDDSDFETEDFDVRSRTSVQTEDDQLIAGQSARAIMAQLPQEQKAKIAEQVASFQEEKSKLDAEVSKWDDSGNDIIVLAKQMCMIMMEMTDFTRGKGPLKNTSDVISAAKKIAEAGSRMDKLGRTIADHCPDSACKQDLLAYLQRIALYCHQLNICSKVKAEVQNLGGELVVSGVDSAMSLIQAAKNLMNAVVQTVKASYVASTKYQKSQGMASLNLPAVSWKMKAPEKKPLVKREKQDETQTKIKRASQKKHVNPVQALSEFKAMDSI
UniProt Q96SW2: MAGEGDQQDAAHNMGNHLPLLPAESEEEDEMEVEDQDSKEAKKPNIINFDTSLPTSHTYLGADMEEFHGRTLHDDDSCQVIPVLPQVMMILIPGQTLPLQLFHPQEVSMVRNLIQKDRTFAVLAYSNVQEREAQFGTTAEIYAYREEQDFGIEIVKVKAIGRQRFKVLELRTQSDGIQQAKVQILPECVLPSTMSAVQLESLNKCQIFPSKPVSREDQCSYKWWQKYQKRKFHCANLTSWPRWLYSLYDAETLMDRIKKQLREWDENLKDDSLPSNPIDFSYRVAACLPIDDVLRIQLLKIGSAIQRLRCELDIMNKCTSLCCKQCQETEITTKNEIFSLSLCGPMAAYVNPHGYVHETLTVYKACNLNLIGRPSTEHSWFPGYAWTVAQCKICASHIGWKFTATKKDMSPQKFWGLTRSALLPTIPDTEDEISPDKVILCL
UniProt Q7L576: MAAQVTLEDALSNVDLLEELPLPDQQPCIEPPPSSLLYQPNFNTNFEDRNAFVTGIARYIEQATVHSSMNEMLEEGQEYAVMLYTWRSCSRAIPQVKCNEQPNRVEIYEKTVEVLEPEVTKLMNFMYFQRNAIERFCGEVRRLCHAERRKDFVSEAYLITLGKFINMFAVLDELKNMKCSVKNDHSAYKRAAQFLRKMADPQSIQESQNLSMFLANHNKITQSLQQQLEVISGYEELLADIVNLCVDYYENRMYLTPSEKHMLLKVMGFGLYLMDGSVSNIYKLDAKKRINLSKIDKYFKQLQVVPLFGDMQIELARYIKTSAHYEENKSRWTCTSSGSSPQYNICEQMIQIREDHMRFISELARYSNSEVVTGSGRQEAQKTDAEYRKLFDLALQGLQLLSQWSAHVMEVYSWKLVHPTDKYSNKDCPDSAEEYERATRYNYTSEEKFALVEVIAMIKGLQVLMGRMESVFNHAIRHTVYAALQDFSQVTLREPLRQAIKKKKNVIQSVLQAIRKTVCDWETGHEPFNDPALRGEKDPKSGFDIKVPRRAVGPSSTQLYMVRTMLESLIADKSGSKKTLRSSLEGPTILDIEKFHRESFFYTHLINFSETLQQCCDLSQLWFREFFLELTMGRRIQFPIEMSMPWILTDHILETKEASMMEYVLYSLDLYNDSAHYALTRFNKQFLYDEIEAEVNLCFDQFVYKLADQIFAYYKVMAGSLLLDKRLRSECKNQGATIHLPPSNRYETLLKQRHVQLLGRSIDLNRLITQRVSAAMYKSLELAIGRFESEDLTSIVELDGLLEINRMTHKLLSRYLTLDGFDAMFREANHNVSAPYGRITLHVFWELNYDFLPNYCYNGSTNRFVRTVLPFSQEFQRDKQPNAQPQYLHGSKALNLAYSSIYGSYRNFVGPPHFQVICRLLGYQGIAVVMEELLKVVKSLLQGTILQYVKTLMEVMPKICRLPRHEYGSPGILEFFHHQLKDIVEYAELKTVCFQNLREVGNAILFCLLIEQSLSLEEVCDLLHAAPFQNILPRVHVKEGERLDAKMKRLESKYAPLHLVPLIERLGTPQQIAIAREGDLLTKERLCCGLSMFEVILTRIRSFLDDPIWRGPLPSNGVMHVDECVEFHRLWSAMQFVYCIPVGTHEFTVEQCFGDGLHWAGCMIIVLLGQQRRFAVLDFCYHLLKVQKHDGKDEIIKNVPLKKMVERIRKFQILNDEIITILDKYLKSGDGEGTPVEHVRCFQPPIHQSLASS
UniProt P01034: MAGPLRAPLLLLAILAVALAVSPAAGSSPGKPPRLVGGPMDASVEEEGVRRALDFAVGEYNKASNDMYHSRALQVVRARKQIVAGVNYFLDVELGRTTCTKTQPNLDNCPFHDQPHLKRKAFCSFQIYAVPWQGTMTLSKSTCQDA
UniProt P41240: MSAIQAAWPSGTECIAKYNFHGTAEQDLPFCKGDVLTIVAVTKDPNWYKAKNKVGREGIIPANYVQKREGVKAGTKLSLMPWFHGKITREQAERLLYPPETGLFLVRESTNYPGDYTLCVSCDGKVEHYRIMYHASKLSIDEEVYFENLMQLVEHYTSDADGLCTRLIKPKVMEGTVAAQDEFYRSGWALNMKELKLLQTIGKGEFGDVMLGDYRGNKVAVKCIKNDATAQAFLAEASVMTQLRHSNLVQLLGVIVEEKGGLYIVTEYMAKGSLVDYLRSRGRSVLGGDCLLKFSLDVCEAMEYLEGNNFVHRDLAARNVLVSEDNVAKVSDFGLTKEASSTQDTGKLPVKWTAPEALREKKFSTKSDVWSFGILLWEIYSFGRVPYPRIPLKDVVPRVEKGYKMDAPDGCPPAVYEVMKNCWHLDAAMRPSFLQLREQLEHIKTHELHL
UniProt Q7L1T6: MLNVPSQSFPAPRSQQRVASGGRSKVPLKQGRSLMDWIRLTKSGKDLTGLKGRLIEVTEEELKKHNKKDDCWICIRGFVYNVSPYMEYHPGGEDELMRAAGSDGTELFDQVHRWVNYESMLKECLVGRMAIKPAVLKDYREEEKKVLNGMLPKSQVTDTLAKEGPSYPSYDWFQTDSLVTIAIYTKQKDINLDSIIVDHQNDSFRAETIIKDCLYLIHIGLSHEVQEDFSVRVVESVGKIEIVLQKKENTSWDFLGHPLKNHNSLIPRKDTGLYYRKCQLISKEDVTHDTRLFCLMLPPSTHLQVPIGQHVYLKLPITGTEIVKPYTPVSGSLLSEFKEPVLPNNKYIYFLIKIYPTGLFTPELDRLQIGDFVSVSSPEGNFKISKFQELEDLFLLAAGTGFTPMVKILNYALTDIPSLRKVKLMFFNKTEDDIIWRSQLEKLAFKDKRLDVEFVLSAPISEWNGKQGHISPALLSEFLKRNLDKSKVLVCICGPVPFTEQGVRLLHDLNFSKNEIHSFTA
UniProt P46108: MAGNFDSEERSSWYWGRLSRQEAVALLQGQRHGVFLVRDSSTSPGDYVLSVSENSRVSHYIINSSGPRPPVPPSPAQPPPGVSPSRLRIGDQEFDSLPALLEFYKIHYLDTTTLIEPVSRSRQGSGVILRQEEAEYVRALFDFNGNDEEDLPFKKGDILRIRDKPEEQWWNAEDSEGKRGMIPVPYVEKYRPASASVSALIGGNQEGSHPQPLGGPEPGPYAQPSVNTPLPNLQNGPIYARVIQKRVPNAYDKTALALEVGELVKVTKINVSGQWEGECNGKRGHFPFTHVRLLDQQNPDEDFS
UniProt Q12996: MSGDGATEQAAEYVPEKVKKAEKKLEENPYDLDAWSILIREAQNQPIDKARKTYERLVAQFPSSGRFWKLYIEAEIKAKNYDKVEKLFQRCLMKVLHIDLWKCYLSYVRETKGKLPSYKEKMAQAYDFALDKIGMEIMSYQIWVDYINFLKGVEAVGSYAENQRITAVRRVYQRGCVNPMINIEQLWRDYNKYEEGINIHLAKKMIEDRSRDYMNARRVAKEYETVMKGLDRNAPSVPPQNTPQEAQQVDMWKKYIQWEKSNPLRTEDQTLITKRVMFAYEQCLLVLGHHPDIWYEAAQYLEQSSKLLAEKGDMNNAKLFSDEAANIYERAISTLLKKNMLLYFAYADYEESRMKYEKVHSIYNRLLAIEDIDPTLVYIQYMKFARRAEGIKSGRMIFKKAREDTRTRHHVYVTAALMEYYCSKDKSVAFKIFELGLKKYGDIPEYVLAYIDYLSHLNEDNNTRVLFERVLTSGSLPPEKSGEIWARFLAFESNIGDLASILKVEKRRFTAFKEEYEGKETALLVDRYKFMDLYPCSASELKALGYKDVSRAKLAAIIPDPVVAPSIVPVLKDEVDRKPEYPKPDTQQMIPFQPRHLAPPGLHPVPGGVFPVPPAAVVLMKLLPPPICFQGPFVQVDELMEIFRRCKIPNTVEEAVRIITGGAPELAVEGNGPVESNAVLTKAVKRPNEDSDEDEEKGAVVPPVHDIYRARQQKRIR
UniProt P50461: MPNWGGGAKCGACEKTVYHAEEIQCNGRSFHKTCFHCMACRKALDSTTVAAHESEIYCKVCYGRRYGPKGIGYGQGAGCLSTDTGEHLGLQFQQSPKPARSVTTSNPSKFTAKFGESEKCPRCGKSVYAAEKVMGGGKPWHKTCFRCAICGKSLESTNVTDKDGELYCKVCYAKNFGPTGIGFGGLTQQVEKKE
UniProt Q9P0U4, whole entry, looked up: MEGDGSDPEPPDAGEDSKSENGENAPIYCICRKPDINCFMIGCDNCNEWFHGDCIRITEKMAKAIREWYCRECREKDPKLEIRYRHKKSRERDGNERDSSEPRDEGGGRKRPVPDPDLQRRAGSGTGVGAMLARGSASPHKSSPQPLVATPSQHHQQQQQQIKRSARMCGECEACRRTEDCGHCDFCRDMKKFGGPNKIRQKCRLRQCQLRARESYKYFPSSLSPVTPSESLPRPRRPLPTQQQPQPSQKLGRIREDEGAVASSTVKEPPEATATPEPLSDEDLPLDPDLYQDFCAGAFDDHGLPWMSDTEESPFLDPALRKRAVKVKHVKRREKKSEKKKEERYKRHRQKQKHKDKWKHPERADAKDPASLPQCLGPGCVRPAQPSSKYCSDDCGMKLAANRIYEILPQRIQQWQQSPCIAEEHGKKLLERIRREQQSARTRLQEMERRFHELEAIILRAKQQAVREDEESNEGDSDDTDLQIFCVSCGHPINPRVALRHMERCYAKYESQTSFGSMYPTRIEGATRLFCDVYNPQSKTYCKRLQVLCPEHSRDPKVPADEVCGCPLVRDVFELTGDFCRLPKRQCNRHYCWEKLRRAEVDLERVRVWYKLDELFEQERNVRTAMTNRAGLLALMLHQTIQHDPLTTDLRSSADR
UniProt Q8IUI8: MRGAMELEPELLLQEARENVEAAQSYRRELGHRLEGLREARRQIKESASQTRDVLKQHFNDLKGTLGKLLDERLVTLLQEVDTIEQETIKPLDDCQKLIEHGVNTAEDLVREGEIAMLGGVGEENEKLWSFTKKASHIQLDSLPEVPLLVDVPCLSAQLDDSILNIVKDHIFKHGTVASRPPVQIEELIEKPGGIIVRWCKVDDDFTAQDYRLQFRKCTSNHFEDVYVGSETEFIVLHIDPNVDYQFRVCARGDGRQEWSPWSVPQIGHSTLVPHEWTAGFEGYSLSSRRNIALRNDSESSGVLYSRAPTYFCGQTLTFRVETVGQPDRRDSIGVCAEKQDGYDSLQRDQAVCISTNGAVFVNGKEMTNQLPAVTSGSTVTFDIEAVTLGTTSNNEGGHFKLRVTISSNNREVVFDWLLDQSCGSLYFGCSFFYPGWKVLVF
UniProt P21291: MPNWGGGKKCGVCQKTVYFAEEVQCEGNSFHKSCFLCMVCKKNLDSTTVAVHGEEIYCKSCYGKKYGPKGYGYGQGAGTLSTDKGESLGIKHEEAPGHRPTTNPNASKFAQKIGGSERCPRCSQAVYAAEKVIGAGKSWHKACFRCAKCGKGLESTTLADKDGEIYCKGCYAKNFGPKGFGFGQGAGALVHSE
UniProt Q5JQC4: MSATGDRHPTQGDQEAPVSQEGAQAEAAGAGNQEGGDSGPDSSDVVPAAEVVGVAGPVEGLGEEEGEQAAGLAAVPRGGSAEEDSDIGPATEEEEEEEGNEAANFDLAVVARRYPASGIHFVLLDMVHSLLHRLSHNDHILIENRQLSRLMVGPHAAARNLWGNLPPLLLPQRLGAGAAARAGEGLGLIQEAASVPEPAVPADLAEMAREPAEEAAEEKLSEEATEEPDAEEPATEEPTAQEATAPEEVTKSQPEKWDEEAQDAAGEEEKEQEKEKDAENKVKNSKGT
UniProt Q9NSA3: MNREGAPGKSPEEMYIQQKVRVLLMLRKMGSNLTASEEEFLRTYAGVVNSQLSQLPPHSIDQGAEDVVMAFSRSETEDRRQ

[1] = compound: C/C(=N\NC(=O)C1=CC(=CC=C1)S(=O)(=O)N2CCOCC2)/C3=C(C=CC(=C3)Cl)O
Outline: as §1

[2] = compound: C1=CC(=CC=C1C2=NC3=C(N2)C=C(C=C3)C(=O)N)OC4=CC=C(C=C4)Cl
Outline: as §1

[3] = compound: C1=CC2=C(C=CC(=C2)/C=C\3/C(=O)NC(=NCC4=CC=CS4)S3)N=C1
Outline: as §1

[4] = compound: C1=CC2=NC=CN=C2C=C1/C=C/3\C(=O)NC(=O)S3
Outline: as §1

[5] = compound: C1=CC=C(C=C1)C2=NC(=C(N2)C3=CC=NC=C3)C4=CC(=C(C=C4)Cl)O
Outline: as §1

[6] = compound: C1=CC=C2C(=C1)C3=NNC4=CC=CC(=C43)C2=O
Outline: as §1

[7] = compound: C1CCN(C1)C(=O)NC2=CC=CC(=C2)NC3=NC=C(C(=N3)NCCC4=CN=CN4)Br
Outline: as §1

[8] = compound: C1CN(CCC1(CC2=CC=C(C=C2)Cl)N)C3=NC=NC4=C3C=CN4
Outline: as §1

IRAK-1-4 Inhibitor I = compound: C1COCCN1CCN2C3=CC=CC=C3N=C2NC(=O)C4=CC(=CC=C4)[N+](=O)[O-] [IRAK-1-4 Inhibitor I]
Outline: as §1

Measured: log2 fold change

CYHR1 (UniProt E9PJD7)
inactive: erlotinib 0.04 | [1] 0.109 | [2] 0.066 | [3] -0.035 | [4] 0.059 | [5] 0 | [6] 0.03 | [7] -0.06 | [8] 0.019 | IRAK-1-4 Inhibitor I 0.029

CTNNA1 (UniProt P35221)
inactive: erlotinib -0.005 | [1] 0.004 | [2] 0.006 | [3] -0.021 | [4] -0.025 | [5] 0.023 | [6] 0.007 | [7] 0 | [8] -0.004 | IRAK-1-4 Inhibitor I 0.017

CYB5R1 (UniProt Q9UHQ9)
inactive: erlotinib 0.022 | [1] 0.024 | [2] 0.1 | [3] -0.053 | [4] -0.136 | [5] -0.042 | [6] 0.049 | [7] -0.024 | [8] 0.026 | IRAK-1-4 Inhibitor I 0.043

CTPS2 (UniProt Q9NRF8)
inactive: erlotinib -0.009 | [1] -0.008 | [2] -0.016 | [3] -0.01 | [4] 0.01 | [5] -0.008 | [6] 0 | [7] -0.021 | [8] -0.015 | IRAK-1-4 Inhibitor I -0.006

CTDP1 (UniProt Q9Y5B0)
inactive: erlotinib 0.018 | [1] 0.021 | [2] 0.016 | [3] 0.009 | [4] -0.036 | [5] 0 | [6] 0.013 | [7] 0.011 | [8] 0.017 | IRAK-1-4 Inhibitor I -0.017

CRBN (UniProt Q96SW2)
inactive: erlotinib 0.041 | [1] -0.012 | [2] 0.037 | [3] 0.061 | [4] -0.055 | [5] -0.061 | [6] -0.095 | [7] -0.02 | [8] -0.004 | IRAK-1-4 Inhibitor I 0.017

CYFIP1 (UniProt Q7L576)
inactive: erlotinib -0.01 | [1] -0.011 | [2] 0.018 | [3] -0.009 | [4] 0.027 | [5] -0.047 | [6] -0.032 | [7] -0.005 | [8] 0.057 | IRAK-1-4 Inhibitor I 0

CST3 (UniProt P01034)
inactive: erlotinib -0.077 | [1] 0.113 | [2] -0.008 | [3] -0.083 | [4] 0.056 | [5] -0.065 | [6] 0.074 | [7] 0.029 | [8] -0.091 | IRAK-1-4 Inhibitor I -0.027

CUL4A (UniProt Q13619)
inactive: erlotinib 0.013 | [1] 0.022 | [2] -0.009 | [3] 0.006 | [4] -0.009 | [5] 0.002 | [6] -0.02 | [7] -0.024 | [8] -0.012 | IRAK-1-4 Inhibitor I 0.039

CSK (UniProt P41240)
inactive: erlotinib 0.045 | [1] -0.025 | [2] -0.004 | [3] -0.028 | [4] -0.035 | [5] 0.031 | [6] 0.106 | [7] 0.107 | [8] 0.033 | IRAK-1-4 Inhibitor I 0.053

CRTC2 (UniProt Q53ET0)
inactive: erlotinib -0.009 | [1] -0.155 | [2] 0.071 | [3] 0.011 | [4] 0.021 | [5] 0.007 | [6] -0.09 | [7] -0.085 | [8] -0.06 | IRAK-1-4 Inhibitor I 0.054

CYB5R4 (UniProt Q7L1T6)
inactive: erlotinib 0.05 | [1] -0.031 | [2] 0.069 | [3] 0.018 | [4] 0 | [5] 0.048 | [6] 0 | [7] -0.016 | [8] -0.034 | IRAK-1-4 Inhibitor I 0.001

CTBS (UniProt Q01459)
inactive: erlotinib 0.024 | [1] -0.073 | [2] 0.04 | [3] 0.013 | [4] 0.005 | [5] 0.006 | [6] 0.048 | [7] -0.011 | [8] -0.007 | IRAK-1-4 Inhibitor I 0.027

CRK (UniProt P46108)
inactive: erlotinib 0.01 | [1] -0.016 | [2] 0.024 | [3] 0.003 | [4] 0.001 | [5] 0.007 | [6] -0.002 | [7] 0.001 | [8] 0.012 | IRAK-1-4 Inhibitor I -0.009

CSTF3 (UniProt Q12996)
inactive: erlotinib -0.005 | [1] 0.019 | [2] 0.01 | [3] -0.001 | [4] -0.028 | [5] -0.027 | [6] 0.005 | [7] -0.018 | [8] 0.012 | IRAK-1-4 Inhibitor I -0.023

CTNNA2 (UniProt P26232)
inactive: erlotinib 0.045 | [1] 0.002 | [2] 0.06 | [3] -0.01 | [4] 0 | [5] -0.009 | [6] -0.004 | [7] -0.028 | [8] -0.003 | IRAK-1-4 Inhibitor I -0.031

CSRP3 (UniProt P50461)
inactive: erlotinib 0.105 | [1] -0.087 | [2] 0.102 | [3] 0.016 | [4] -0.074 | [5] 0.1 | [6] 0.01 | [7] -0.011 | [8] 0.009 | IRAK-1-4 Inhibitor I -0.133

7 successive records already listed, for reference:
CSK (UniProt P41240)
inactive: erlotinib 0.045 | [1] -0.025 | [2] -0.004 | [3] -0.028 | [4] -0.035 | [5] 0.031 | [6] 0.106 | [7] 0.107 | [8] 0.033 | IRAK-1-4 Inhibitor I 0.053

CRTC2 (UniProt Q53ET0)
inactive: erlotinib -0.009 | [1] -0.155 | [2] 0.071 | [3] 0.011 | [4] 0.021 | [5] 0.007 | [6] -0.09 | [7] -0.085 | [8] -0.06 | IRAK-1-4 Inhibitor I 0.054

CYB5R4 (UniProt Q7L1T6)
inactive: erlotinib 0.05 | [1] -0.031 | [2] 0.069 | [3] 0.018 | [4] 0 | [5] 0.048 | [6] 0 | [7] -0.016 | [8] -0.034 | IRAK-1-4 Inhibitor I 0.001

CTBS (UniProt Q01459)
inactive: erlotinib 0.024 | [1] -0.073 | [2] 0.04 | [3] 0.013 | [4] 0.005 | [5] 0.006 | [6] 0.048 | [7] -0.011 | [8] -0.007 | IRAK-1-4 Inhibitor I 0.027

CRK (UniProt P46108)
inactive: erlotinib 0.01 | [1] -0.016 | [2] 0.024 | [3] 0.003 | [4] 0.001 | [5] 0.007 | [6] -0.002 | [7] 0.001 | [8] 0.012 | IRAK-1-4 Inhibitor I -0.009

CSTF3 (UniProt Q12996)
inactive: erlotinib -0.005 | [1] 0.019 | [2] 0.01 | [3] -0.001 | [4] -0.028 | [5] -0.027 | [6] 0.005 | [7] -0.018 | [8] 0.012 | IRAK-1-4 Inhibitor I -0.023

CTNNA2 (UniProt P26232)
inactive: erlotinib 0.045 | [1] 0.002 | [2] 0.06 | [3] -0.01 | [4] 0 | [5] -0.009 | [6] -0.004 | [7] -0.028 | [8] -0.003 | IRAK-1-4 Inhibitor I -0.031

Later entries.

CXXC1 isoform 2 (UniProt Q9P0U4)
inactive: erlotinib 0.02 | [1] -0.031 | [2] -0.051 | [3] 0.029 | [4] -0.085 | [5] -0.036 | [6] -0.088 | [7] 0.082 | [8] 0.04 | IRAK-1-4 Inhibitor I 0.059

CRLF3 (UniProt Q8IUI8)
inactive: erlotinib 0.033 | [1] 0.022 | [2] -0.004 | [3] -0.007 | [4] -0.001 | [5] 0.017 | [6] 0.006 | [7] -0.019 | [8] 0.021 | IRAK-1-4 Inhibitor I 0

CTIF isoform 2 (UniProt O43310)
inactive: erlotinib 0.01 | [1] -0.022 | [2] -0.031 | [3] -0.012 | [4] 0 | [5] 0.007 | [6] 0.001 | [7] -0.096 | [8] 0.039 | IRAK-1-4 Inhibitor I 0.022

CSRP1 (UniProt P21291)
inactive: erlotinib 0.004 | [1] -0.039 | [2] 0.014 | [3] -0.013 | [4] 0.008 | [5] 0.017 | [6] 0.015 | [7] 0.023 | [8] -0.014 | IRAK-1-4 Inhibitor I 0.009

CT47A1 (UniProt Q5JQC4)
inactive: erlotinib -0.003 | [1] -0.006 | [2] -0.003 | [3] -0.024 | [4] 0.006 | [5] 0.016 | [6] -0.132 | [7] -0.015 | [8] 0.055 | IRAK-1-4 Inhibitor I 0.017

CUL7 isoform 2 (UniProt Q14999)
inactive: erlotinib -0.068 | [1] -0.132 | [2] -0.084 | [3] 0.133 | [4] 0.026 | [5] 0.056 | [6] 0.088 | [7] 0.007 | [8] 0.065 | IRAK-1-4 Inhibitor I -0.034

CYB561A3 isoform 2 (UniProt Q8NBI2)
inactive: erlotinib 0.117 | [1] 0.053 | [2] 0.117 | [3] -0.014 | [4] 0.03 | [5] -0.165 | [6] -0.153 | [7] 0.062 | [8] 0.055 | IRAK-1-4 Inhibitor I -0.001

CTNNBIP1 (UniProt Q9NSA3)
inactive: erlotinib -0.149 | [2] 0.066

CRYM-AS1 (UniProt A6NIL9)
inactive: erlotinib 0.065 | [1] 0.166 | [2] 0.193 | [3] -0.319 | [4] 0.205 | [5] -0.149 | [6] -0.475 | [7] 0.084 | [8] 0.151 | IRAK-1-4 Inhibitor I 0.1

CTNNB1 (UniProt P35222)
inactive: erlotinib -0.078 | [1] 0.063 | [2] 0.027 | [3] 0.085 | [4] 0.095 | [5] -0.016 | [6] 0.049 | [7] -0.065 | [8] -0.027 | IRAK-1-4 Inhibitor I -0.006

CSTF2T (UniProt Q9H0L4)
inactive: erlotinib 0.018 | [1] 0.007 | [2] 0.011 | [3] -0.006 | [4] -0.015 | [5] -0.002 | [6] -0.012 | [7] 0.045 | [8] 0.014 | IRAK-1-4 Inhibitor I -0.002

From the supplement of paper PMC10849652
